Data taken from patent US10144758B2, “Deuterated bile acids” (Metselex, Inc., priority 2013, dated 2018).
At least one structure is not confirmed: it was looked up by name or label, or the drawing left a doubt.

Columns and labels:
primary rat hepatocytes [1] = assay: DCA-induced cytotoxicity, LDH release; type: cell-based; settings: 100 μM DCA, compared with 50 μM DCA
Protocol: Primary rat hepatocytes were isolated from male rats (100-150 grams) by collagenase perfusion (as described by Solá S, et al., 2003, Journal of Biological Chemistry 278: 48831-48838)). Briefly, rats were anesthetized with phenobarbital sodium (100 mg/kg body weight) injected into the peritoneal cavity. After administration of heparin (200 units/kg body weight) in the tail vein, the animal's abdomen was opened and the portal vein exposed and cannulated. The liver was then perfused at 37° C. in situ with a calcium-free Hanks' Balanced Salt Solution (HBSS) for about 10 minutes, and then with 0.05% collagenase type IV in calcium-present HBSS for another 10 minutes. […] Cell viability was determined by trypan blue exclusion and was typically 80-85%. […] General cell death was also evaluated using the lactate dehydrogenase (LDH) Cytotoxicity Detection Kit^PLUS (Roche Diagnostics GmbH, Mannheim, Germany), following the manufacturer's instructions. […] Results are expressed as means±SEM of at least three experiments. *p<0.01 from control; § p<0.05 and †p<0.01 from respective DCA.

primary rat hepatocytes [2] = settings: non-deuterated UDCA, Castro et al., 2007; cited from earlier work
primary rat hepatocytes [3] = settings: non-deuterated UDCA, Solá et al., 2003; cited from earlier work

C[C@H](CCC(=O)O)[C@H]1CC[C@H]2[C@@H]3[C@@H](O)C[C@@H]4C[C@H](O)CC[C@]4(C)[C@H]3CC[C@]12C [UDCA, Ursodeoxycholic acid, reference compound]
protection against DCA-induced LDH release (primary rat hepatocytes [1]): Slightly reduced protection | inhibition of DCA-induced apoptosis (primary rat hepatocytes [2]): ~60% | inhibition of TGF-β1-induced apoptosis (primary rat hepatocytes [3]): ~50%
